Results published in the supplement of paper PMC6411743.
± gives the standard deviation of the averaged measurements. Only a part is listed here, and it is no random draw. Most entries show no effect beyond the scatter of the controls.

Protein sequences, listed by entry. Tags and fused reporters are not part of them. Lines headed by an entry give the natural chain unless they say otherwise; changes in a name come on top.
UniProt Q9H6N6: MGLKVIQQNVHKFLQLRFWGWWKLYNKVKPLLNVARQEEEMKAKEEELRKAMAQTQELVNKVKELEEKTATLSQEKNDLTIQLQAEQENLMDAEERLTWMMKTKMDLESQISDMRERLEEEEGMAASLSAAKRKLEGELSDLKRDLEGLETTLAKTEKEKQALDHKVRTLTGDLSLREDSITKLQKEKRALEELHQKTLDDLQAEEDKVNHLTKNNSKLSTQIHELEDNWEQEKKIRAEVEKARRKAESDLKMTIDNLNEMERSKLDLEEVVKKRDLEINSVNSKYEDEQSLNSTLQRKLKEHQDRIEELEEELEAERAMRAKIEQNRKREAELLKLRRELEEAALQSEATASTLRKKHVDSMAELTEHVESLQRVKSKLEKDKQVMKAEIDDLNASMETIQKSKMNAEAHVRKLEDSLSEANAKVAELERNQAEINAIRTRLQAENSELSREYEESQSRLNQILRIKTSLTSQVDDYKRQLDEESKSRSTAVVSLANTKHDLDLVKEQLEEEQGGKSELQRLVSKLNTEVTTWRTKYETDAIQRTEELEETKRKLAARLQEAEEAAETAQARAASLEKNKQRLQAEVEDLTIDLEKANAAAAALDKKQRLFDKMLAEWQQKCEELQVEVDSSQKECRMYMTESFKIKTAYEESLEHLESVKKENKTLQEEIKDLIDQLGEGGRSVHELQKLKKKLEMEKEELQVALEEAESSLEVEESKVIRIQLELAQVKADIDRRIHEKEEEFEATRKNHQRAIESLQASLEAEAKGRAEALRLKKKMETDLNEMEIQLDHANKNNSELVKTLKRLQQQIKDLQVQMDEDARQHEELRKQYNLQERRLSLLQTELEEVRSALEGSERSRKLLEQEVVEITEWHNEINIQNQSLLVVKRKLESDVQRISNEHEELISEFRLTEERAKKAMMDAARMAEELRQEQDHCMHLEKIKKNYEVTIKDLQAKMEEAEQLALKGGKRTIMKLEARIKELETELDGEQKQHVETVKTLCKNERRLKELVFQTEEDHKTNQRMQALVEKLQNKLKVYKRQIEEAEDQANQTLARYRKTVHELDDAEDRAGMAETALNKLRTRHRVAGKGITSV
UniProt Q9H1P3, whole entry: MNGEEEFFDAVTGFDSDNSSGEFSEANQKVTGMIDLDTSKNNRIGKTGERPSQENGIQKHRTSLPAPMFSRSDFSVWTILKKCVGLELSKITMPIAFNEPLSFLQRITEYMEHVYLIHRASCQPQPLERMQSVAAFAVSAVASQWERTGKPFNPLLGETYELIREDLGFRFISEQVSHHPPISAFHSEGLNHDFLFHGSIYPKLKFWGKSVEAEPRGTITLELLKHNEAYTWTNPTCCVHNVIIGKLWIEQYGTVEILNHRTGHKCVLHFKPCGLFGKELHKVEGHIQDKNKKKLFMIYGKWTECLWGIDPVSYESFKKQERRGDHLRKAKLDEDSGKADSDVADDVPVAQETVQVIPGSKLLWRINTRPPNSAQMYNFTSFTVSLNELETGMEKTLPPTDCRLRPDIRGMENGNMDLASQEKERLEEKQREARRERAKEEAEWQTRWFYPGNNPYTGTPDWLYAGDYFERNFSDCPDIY
UniProt Q9NP77: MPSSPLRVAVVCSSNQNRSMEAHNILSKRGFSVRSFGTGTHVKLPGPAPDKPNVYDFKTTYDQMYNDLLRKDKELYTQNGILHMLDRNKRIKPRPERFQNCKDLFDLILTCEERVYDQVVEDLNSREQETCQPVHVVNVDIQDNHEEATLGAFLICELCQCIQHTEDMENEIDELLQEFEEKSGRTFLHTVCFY
UniProt Q9HBH5: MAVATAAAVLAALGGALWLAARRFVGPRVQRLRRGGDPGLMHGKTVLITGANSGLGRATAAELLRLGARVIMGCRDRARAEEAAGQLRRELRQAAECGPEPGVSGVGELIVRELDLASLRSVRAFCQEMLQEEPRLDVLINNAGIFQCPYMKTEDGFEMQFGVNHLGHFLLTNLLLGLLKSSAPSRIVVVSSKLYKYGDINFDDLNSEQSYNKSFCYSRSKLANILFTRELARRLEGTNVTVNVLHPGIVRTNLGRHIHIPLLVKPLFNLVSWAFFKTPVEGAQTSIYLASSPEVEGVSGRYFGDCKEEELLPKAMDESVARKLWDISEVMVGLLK
UniProt Q9H0U4: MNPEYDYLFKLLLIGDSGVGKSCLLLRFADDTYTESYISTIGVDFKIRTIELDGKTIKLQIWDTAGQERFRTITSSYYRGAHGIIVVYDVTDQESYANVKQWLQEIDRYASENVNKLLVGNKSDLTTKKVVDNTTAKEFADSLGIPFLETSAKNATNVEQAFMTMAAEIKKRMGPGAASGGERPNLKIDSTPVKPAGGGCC
UniProt Q9GZP4: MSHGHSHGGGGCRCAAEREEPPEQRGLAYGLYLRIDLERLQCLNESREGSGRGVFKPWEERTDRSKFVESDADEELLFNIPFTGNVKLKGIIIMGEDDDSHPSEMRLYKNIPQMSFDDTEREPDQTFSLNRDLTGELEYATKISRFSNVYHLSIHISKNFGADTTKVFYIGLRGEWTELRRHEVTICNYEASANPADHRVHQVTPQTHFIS
UniProt Q9H0C8: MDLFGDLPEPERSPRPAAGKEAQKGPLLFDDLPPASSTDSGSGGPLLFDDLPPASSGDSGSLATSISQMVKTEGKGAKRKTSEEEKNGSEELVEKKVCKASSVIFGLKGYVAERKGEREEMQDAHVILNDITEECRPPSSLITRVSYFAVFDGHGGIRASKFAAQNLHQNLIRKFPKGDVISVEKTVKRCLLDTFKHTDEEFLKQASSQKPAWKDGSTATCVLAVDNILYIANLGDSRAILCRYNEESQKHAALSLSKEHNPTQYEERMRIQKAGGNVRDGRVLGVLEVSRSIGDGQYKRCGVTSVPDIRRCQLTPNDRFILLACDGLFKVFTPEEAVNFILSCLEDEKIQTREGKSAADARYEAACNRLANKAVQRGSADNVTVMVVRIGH
UniProt Q9HCM4: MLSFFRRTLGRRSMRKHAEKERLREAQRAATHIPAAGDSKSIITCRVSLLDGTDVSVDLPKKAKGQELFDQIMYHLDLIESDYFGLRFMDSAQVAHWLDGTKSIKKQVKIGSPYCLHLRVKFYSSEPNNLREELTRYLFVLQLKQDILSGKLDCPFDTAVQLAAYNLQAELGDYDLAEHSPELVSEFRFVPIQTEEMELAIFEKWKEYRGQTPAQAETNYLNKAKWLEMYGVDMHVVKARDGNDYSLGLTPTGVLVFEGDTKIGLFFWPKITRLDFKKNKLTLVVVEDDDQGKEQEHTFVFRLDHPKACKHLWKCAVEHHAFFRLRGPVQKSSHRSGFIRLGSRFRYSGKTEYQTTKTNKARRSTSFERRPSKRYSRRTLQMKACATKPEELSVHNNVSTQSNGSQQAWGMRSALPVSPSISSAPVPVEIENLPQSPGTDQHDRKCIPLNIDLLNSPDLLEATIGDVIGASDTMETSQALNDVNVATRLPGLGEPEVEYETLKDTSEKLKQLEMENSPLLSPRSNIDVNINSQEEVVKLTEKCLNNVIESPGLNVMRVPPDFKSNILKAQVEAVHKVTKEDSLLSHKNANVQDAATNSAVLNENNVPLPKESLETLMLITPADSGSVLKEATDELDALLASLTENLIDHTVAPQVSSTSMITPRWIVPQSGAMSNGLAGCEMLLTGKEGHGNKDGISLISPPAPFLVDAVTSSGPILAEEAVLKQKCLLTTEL
UniProt Q9HCI7: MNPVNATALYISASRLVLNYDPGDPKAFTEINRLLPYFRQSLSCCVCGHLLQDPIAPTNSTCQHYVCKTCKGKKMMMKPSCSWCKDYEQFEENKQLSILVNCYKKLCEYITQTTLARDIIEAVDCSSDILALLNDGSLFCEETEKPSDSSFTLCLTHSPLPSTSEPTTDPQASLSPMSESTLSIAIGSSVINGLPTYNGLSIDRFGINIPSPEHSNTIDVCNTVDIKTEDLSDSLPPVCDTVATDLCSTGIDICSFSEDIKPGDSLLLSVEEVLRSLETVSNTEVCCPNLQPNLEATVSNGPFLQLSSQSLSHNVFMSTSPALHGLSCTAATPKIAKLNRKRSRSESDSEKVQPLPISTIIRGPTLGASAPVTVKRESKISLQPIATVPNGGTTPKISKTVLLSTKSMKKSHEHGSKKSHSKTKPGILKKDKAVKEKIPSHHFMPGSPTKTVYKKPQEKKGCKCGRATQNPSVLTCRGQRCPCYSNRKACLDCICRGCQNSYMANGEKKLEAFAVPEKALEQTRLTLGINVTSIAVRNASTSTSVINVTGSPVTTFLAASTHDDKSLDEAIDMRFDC
UniProt Q9C0I1: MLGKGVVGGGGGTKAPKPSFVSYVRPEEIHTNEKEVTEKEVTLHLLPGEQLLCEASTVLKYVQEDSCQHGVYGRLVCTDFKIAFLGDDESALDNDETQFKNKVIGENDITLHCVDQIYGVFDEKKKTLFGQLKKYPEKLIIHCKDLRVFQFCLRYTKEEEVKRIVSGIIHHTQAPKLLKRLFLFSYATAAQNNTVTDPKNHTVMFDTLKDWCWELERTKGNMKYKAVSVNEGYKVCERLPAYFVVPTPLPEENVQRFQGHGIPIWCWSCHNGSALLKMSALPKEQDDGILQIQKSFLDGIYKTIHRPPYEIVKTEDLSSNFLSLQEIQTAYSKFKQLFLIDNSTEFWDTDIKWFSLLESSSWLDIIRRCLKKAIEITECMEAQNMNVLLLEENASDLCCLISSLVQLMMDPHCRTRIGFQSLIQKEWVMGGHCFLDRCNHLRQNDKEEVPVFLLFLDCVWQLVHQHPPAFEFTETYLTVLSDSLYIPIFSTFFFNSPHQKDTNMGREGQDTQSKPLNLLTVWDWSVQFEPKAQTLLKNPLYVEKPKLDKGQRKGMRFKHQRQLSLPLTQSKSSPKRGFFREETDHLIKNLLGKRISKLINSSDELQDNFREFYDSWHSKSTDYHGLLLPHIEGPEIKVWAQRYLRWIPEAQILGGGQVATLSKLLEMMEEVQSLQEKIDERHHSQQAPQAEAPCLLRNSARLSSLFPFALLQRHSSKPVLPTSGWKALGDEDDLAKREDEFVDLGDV
UniProt Q9H6R7: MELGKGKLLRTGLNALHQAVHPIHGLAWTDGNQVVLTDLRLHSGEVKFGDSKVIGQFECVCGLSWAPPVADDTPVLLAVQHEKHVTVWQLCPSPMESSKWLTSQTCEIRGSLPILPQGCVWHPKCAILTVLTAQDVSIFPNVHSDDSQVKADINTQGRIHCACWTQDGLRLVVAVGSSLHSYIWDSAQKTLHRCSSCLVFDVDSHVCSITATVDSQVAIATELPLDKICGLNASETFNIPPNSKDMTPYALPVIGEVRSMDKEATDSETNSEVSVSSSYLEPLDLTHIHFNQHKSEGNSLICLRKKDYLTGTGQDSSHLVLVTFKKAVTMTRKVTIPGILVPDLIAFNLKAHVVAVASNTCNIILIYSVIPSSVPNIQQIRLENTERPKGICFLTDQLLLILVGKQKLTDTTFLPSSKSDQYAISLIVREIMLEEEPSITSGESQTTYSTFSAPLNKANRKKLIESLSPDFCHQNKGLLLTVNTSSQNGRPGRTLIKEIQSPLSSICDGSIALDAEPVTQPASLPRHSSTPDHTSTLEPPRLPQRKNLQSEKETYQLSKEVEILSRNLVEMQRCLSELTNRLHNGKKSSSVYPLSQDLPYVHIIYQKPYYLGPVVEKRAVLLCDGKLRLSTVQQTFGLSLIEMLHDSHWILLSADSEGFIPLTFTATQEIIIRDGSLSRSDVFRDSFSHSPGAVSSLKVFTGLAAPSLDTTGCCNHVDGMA
UniProt Q9HB90, whole entry: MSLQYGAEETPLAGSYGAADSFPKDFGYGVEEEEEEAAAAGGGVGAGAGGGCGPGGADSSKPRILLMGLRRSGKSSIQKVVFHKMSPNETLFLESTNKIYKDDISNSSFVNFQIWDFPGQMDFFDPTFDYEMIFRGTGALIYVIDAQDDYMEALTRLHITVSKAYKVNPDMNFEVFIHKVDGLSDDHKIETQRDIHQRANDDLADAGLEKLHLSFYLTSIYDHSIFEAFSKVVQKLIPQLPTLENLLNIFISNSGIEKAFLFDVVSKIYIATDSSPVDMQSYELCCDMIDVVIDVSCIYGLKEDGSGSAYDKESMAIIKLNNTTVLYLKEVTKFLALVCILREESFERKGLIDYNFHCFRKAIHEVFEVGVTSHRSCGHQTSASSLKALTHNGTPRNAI
UniProt Q9NPA3, whole entry: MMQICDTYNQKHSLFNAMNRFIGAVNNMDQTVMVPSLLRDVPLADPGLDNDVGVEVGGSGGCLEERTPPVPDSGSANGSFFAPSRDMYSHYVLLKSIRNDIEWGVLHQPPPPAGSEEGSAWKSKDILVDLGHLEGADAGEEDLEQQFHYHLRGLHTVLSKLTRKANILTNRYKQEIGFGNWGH
UniProt Q9HC21: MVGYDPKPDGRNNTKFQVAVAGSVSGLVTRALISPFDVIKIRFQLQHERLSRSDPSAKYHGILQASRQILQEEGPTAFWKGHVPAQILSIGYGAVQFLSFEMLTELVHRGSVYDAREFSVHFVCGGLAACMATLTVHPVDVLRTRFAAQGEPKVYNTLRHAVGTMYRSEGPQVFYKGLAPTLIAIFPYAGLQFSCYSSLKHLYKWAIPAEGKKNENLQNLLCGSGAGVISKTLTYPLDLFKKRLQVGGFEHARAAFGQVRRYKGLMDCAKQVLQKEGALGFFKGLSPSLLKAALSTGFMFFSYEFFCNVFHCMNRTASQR

Compound: Nc1ncnc2c1ncn2[C@@H]1O[C@H](COP(=O)(O)OP(=O)(O)NP(=O)(O)O)[C@@H](O)[C@H]1O [adenylyl imidodiphosphate]
Assay: NP40-soluble protein abundance relative to vehicle (solubility fold change) (ratio); higher = more soluble protein in presence of AMP-PNP
Outline: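 Eight concentrations, 0.1 to 10 mM, were tested on Jurkat crude lysate for 10 min at room temperature and then 3 min at 37 °C, in three independent experiments. The lysate was solubilised with 0.8% NP40 and benzonase, ultracentrifuged, and the supernatant TMT-labelled for LC-MS/MS. Each value is the fold change against the detergent-processed vehicle in its own replicate, from vsn-normalised intensities.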

Target | NP40-soluble protein abundance (concentration: 0.1mM) | NP40-soluble protein abundance (concentration: 0.5mM)
ATG5 (UniProt Q9H1Y0) | 0.999 ± 0.047 | 1.03 ± 0.031
MYH16 (UniProt Q9H6N6) | 0.969 ± 0.026 | 0.98601 ± 0.00012
UniProt Q9H1P3 and related entries | 0.99 ± 0.0097 | 1.01 ± 0.025
SSU72 (UniProt Q9NP77) | 0.993 ± 0.015 | 1.05 ± 0.021
TOLLIP (UniProt Q9H0E2) | 0.98 ± 0.016 | 0.9861 ± 0.0082
RDH14 (UniProt Q9HBH5) | 1.04 ± 0.042 | 1.01 ± 0.0037
PUS3 (UniProt Q9BZE2) | 1 ± 0.034 | 0.99 ± 0.018
UniProt Q9NP92 and related entries | 1.07 ± 0.064 | 1.06 ± 0.052
RAB1B (UniProt Q9H0U4) | 0.9566 ± 0.0079 | 0.998 ± 0.031
LYRM4 (UniProt Q9HD34) | 0.984 ± 0.041 | 0.989 ± 0.054
UniProt Q9H1Z4 and related entries | 1 ± 0.017 | 0.991 ± 0.026
UniProt Q9GZP4 | 1 ± 0.043 | 0.984 ± 0.04
ILKAP (UniProt Q9H0C8) | 0.983 ± 0.017 | 0.9723 ± 0.0095
UniProt Q9HCM4 and related entries | 0.996 ± 0.035 | 0.996 ± 0.042
MSL2 (UniProt Q9HCI7) | 1.03 ± 0.042 | 1.01 ± 0.074
UPF2 (UniProt Q9HAU5) | 0.9796 ± 0.0083 | 1 ± 0.029
UniProt Q9H8G2 | 0.963 ± 0.038 | 1.01 ± 0.03
UniProt Q9H2G2-2 | 0.974 ± 0.02 | 1.01 ± 0.024
UniProt Q9C0I1 and related entries | 0.958 ± 0.024 | 0.989 ± 0.025
UniProt Q9H6R7 and related entries | 1.01 ± 0.042 | 1 ± 0.034
RRAGC (UniProt Q9HB90) | 1 ± 0.032 | 1.01 ± 0.03
UniProt Q9NPA3 | 1 ± 0.014 | 0.997 ± 0.02
UniProt Q9HC21 and related entries | 1.03 ± 0.055 | 0.989 ± 0.077

Rewritten field by field: entries from further up
UniProt Q9H1P3 and related entries
  NP40-soluble protein abundance (concentration: 0.1mM): 0.99 ± 0.0097; NP40-soluble protein abundance (concentration: 0.5mM): 1.01 ± 0.025
SSU72 (UniProt Q9NP77)
  NP40-soluble protein abundance (concentration: 0.1mM): 0.993 ± 0.015; NP40-soluble protein abundance (concentration: 0.5mM): 1.05 ± 0.021
